No constants are given. Whether binding was seen depends on the method and setting. In cells and extracts the contact can be indirect. For part of these data: A result given as binding can be weak or reduced; the word gives no strength. For part of these data: Tags and fused reporters may be left off the sequences shown.
How the values were obtained:
Experiment in all cases: split reporter; BiFC in N. benthamiana leaves; Agrobacterium strains with the BiFC vectors mixed at equal density and infiltrated; imaged 48 hpi by confocal microscopy (YFP reconstitution)
[1] = biological target: T1, EDS1 (ENHANCED DISEASE SUSCEPTIBILITY 1) BiFC fusion (Arabidopsis thaliana) (UniProt Q9XF23)
T1 sequence: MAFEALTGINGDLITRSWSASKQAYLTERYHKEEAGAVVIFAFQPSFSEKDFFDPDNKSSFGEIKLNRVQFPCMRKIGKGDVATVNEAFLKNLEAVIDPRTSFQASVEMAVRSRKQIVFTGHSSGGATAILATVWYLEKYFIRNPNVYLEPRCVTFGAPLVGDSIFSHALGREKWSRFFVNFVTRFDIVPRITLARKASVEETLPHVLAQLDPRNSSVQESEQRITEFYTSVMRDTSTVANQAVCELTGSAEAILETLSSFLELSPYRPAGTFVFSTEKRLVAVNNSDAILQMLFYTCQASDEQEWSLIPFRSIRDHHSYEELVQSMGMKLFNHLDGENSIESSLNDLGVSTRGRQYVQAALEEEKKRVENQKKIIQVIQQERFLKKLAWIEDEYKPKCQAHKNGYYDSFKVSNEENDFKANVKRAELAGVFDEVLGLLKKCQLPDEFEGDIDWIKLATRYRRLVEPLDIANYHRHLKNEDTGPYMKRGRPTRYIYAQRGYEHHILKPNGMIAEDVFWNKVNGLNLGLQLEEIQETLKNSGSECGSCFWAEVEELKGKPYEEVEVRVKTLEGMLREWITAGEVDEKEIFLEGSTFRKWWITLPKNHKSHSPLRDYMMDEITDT

Amino acid sequences for entries named in this document (tags omitted). A change or cut given only in a name is not applied to a line headed by its entry.
UniProt P05804: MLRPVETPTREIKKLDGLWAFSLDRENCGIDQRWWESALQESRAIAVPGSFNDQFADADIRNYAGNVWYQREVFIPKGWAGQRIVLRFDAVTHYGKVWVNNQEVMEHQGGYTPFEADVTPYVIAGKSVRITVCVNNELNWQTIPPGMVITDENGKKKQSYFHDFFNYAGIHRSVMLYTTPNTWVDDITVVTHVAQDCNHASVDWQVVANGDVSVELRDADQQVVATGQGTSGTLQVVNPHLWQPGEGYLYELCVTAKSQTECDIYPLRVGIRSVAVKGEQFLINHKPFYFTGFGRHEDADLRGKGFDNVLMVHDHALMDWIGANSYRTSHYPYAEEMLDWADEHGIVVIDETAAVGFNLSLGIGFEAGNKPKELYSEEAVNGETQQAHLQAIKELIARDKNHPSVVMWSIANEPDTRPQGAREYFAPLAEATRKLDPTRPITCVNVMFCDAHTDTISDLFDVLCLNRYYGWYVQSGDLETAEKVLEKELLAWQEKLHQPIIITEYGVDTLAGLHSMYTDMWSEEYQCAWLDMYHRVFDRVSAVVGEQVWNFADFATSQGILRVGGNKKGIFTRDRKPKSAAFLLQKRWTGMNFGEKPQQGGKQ
UniProt Q9FLP5: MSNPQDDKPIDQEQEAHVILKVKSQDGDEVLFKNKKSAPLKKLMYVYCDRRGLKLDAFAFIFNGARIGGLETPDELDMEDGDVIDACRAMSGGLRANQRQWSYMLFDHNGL
UniProt P55852: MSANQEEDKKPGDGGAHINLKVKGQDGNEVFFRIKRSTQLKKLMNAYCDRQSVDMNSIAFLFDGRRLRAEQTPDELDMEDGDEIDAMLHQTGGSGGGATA

[2] = biological target: beta-glucuronidase (GUS) BiFC fusion used as negative control against the SUMOs (UniProt P05804)
[3] = biological target: T2, nVenus-SRFR1 (SUPPRESSOR OF rps4-RLD1) (Arabidopsis thaliana) (UniProt F4JS25)
T2 sequence: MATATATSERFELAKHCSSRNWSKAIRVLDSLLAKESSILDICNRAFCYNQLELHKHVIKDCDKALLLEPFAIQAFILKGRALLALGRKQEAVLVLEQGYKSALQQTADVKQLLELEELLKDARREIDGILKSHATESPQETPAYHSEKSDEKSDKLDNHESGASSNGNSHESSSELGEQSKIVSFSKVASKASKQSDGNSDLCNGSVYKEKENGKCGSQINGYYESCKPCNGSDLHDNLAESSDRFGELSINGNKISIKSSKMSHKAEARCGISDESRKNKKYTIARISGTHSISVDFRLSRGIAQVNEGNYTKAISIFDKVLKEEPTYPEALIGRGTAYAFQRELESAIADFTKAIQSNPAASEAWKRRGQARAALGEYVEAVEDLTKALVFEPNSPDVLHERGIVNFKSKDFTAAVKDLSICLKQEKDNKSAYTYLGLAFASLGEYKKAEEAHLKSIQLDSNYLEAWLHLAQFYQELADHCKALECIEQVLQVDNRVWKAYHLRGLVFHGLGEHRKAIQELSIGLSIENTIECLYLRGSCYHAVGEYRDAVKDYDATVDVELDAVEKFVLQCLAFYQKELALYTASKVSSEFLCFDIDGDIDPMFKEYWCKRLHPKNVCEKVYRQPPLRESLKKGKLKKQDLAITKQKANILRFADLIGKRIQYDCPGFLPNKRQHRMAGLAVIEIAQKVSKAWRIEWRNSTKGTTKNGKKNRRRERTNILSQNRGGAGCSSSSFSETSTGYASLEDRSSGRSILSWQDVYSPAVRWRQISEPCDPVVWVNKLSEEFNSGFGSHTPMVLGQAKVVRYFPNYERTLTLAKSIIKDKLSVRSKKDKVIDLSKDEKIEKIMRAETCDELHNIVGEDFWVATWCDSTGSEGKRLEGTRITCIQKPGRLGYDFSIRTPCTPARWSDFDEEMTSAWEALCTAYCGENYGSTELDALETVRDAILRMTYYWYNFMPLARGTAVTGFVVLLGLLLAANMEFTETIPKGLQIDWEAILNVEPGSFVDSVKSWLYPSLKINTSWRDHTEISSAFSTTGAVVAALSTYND

## cCFP-SUMO3 GG (SUMOylation-competent form) (from UniProt Q9FLP5)
[1]
  binding: no binding
[2]
  binding: no binding
[3]
  binding: binds

## cCFP-SUMO3 AA (SUMOylation-deficient form) (from UniProt Q9FLP5)
[1]
  binding: no binding
[2]
  binding: no binding
[3]
  binding: binds

## cCFP-SUMO1 AA (SUMOylation-deficient form) (from UniProt P55852)
[1]
  binding: no binding
[2]
  binding: no binding
[3]
  binding: no binding

## cCFP-SUMO1 GG (SUMOylation-competent form) (from UniProt P55852)
[1]
  binding: binds
[2]
  binding: no binding
[3]
  binding: binds
